This passage reports T/C results from PubChem BioAssay AID248 (DTP/NCI, 2004).

This test deals with L1210 leukemia ip in BDF1 mice, survival T/C. Put plainly: NCI In Vivo Anticancer Drug Screen. Data for tumor model L1210 Leukemia (intraperitoneal) in B6D2F1 (BDF1) mice. The following applies: T/C endpoint: mean survival time, higher T/C = longer survival.

The list is a part of this screen's results and no random one: it gathers some chemical classes. Other doses and runs of a compound may be missing. T/C is the treated group as % of the vehicle group. For survival time, the PubChem record calls one and a half times the control and up active, and a quarter to a half above the control has no call in these data; cut-offs in other NCI protocols can differ. Some entries show no survivor count and are marked so; the dose need not have been tolerated. Schedules are NCI's codes, read here as Q, the interval in days (D) or hours (H), X, the number of doses. Some doses were run more than once; the values are given in rising order.

`O=C(O)Cc1c[nH]c2ccc(N(CCCl)CCCl)cc12`: the T/C (dose: 0.06 mg/kg/injection, schedule: Q01DX009 (ip), vehicle: saline) was 111 % of control [survivor count not shown]; the T/C (dose: 0.12 mg/kg/injection, schedule: Q01DX009 (ip), vehicle: saline) was 102 % of control [survivor count not shown]; the T/C (dose: 0.25 mg/kg/injection, schedule: Q01DX009 (ip), vehicle: saline) is 106 % of control [survivor count not shown]; the T/C (dose: 0.4 mg/kg/injection, schedule: Q01DX009 (ip), vehicle: Klucel (hydroxypropylcellulose) (HPC)) is 123 % of control [survivor count not shown]; the T/C (dose: 0.5 mg/kg/injection, schedule: Q01DX009 (ip), vehicle: saline) was 146 % of control [survivor count not shown]; the T/C (dose: 0.8 mg/kg/injection, schedule: Q01DX009 (ip), vehicle: Klucel (hydroxypropylcellulose) (HPC)) is 123 % of control [survivor count not shown]. The T/C is, setting by setting: (dose: 1.0 mg/kg/injection, schedule: Q01DX009 (ip), vehicle: saline) 164 % of control [survivor count not shown]; (dose: 1.5 mg/kg/injection, schedule: Q04DX003 (ip), vehicle: Klucel (hydroxypropylcellulose) (HPC)) 117 % of control [survivor count not shown]; (dose: 1.6 mg/kg/injection, schedule: Q01DX009 (ip), vehicle: Klucel (hydroxypropylcellulose) (HPC)) 131 % of control [survivor count not shown]; (dose: 2.0 mg/kg/injection, schedule: Q01DX009 (ip), vehicle: saline) 147 % of control [survivor count not shown]; (dose: 2.5 mg/kg/injection, schedule: Q01DX001 (ip), vehicle: saline) 116 % of control [survivor count not shown]; (dose: 3.1 mg/kg/injection, schedule: Q01DX009 (ip), vehicle: Klucel (hydroxypropylcellulose) (HPC)) 153 % of control [survivor count not shown]. Moreover, the T/C reads like this: (dose: 3.1 mg/kg/injection, schedule: Q04DX003 (ip), vehicle: Klucel (hydroxypropylcellulose) (HPC)) 134 % of control [survivor count not shown]; (dose: 4.0 mg/kg/injection, schedule: Q01DX009 (ip), vehicle: saline) 104 % of control [survivor count not shown]; (dose: 5.0 mg/kg/injection, schedule: Q01DX001 (ip), vehicle: saline) 130 [survivor count not shown] and 165 % of control [survivor count not shown]; (dose: 6.2 mg/kg/injection, schedule: Q01DX009 (ip), vehicle: Klucel (hydroxypropylcellulose) (HPC)) 103 % of control [survivor count not shown]; (dose: 6.2 mg/kg/injection, schedule: Q04DX003 (ip), vehicle: Klucel (hydroxypropylcellulose) (HPC)) 161 % of control [survivor count not shown]; (dose: 8.0 mg/kg/injection, schedule: Q01DX009 (ip), vehicle: saline) 158 % of control [survivor count not shown]. For the same compound, the T/C is 122 % of control [survivor count not shown] (dose: 10.0 mg/kg/injection, schedule: Q01DX001 (ip), vehicle: saline); 115 [survivor count not shown] and 167 % of control [survivor count not shown] (dose: 12.5 mg/kg/injection, schedule: Q04DX003 (ip), vehicle: Klucel (hydroxypropylcellulose) (HPC)); 154 % of control [survivor count not shown] (dose: 15.0 mg/kg/injection, schedule: Q01DX009 (ip), vehicle: saline); 130 % of control [survivor count not shown] (dose: 20.0 mg/kg/injection, schedule: Q01DX001 (ip), vehicle: saline); 146 % of control [survivor count not shown] (dose: 40.0 mg/kg/injection, schedule: Q01DX001 (ip), vehicle: saline).

Regarding `O=c1oc(CCN(CCCl)CCCl)nc2ccccc12`, the T/C was 116 % of control [survivor count not shown] (dose: 50.0 mg/kg/injection, schedule: Q04DX002 (ip), vehicle: Klucel (hydroxypropylcellulose) (HPC)); 116 [survivor count not shown] and 138 % of control [survivor count not shown] (dose: 100.0 mg/kg/injection, schedule: Q04DX002 (ip), vehicle: Klucel (hydroxypropylcellulose) (HPC)); 159 [survivor count not shown] and 162 % of control [survivor count not shown] (dose: 200.0 mg/kg/injection, schedule: Q04DX002 (ip), vehicle: Klucel (hydroxypropylcellulose) (HPC)).

For the compound `COc1cc(N(CCCl)CCCl)ccc1C=O`, the T/C (dose: 100.0 mg/kg/injection, schedule: Q01DX001 (ip), vehicle: Klucel (hydroxypropylcellulose) (HPC)) is 101 % of control [survivor count not shown]; the T/C (dose: 100.0 mg/kg/injection, schedule: Q01DX009 (ip), vehicle: Klucel (hydroxypropylcellulose) (HPC)) was 100 % of control [survivor count not shown]; the T/C (dose: 100.0 mg/kg/injection, schedule: Q04DX003 (ip), vehicle: Klucel (hydroxypropylcellulose) (HPC)) was 111 % of control [survivor count not shown]; the T/C (dose: 200.0 mg/kg/injection, schedule: Q01DX001 (ip), vehicle: Klucel (hydroxypropylcellulose) (HPC)) is 101 % of control [survivor count not shown]; the T/C (dose: 200.0 mg/kg/injection, schedule: Q01DX009 (ip), vehicle: Klucel (hydroxypropylcellulose) (HPC)) is 100 % of control [survivor count not shown]; the T/C (dose: 200.0 mg/kg/injection, schedule: Q04DX003 (ip), vehicle: Klucel (hydroxypropylcellulose) (HPC)) was 104 % of control [survivor count not shown]. The T/C (dose: 400.0 mg/kg/injection, schedule: Q01DX001 (ip), vehicle: Klucel (hydroxypropylcellulose) (HPC)) is 101 % of control [survivor count not shown]; the T/C (dose: 400.0 mg/kg/injection, schedule: Q01DX009 (ip), vehicle: Klucel (hydroxypropylcellulose) (HPC)) is 104 % of control [survivor count not shown]; the T/C (dose: 400.0 mg/kg/injection, schedule: Q04DX003 (ip), vehicle: Klucel (hydroxypropylcellulose) (HPC)) is 98 % of control [survivor count not shown].

Take `O=c1cc(CN(CCCl)CCCl)[nH]c(=O)[nH]1`: the T/C is, setting by setting: (dose: 100.0 mg/kg/injection, schedule: Q04DX003 (ip), vehicle: saline) 95 % of control [survivor count not shown]; (dose: 200.0 mg/kg/injection, schedule: Q04DX003 (ip), vehicle: saline) 95 % of control [survivor count not shown]; (dose: 400.0 mg/kg/injection, schedule: Q04DX003 (ip), vehicle: saline) 98 % of control [survivor count not shown].
